# Primary screen of a compound library

Values are the deposited “Percent Effect”, in %.
How 0% and 100% were set is not recorded. Most values in the screen are low, and negative values occur.
The compounds are a random part of those screened.
Two or more numbers in one place are separate tests of the same structure; such repeats can differ widely.

A: 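Whole-parasite assay of Trypanosoma brucei over 72 hours; the read-out is not stated. Tested at 30 µM. Higher reads as stronger inhibition (inferred: compounds with an IC50 in retests scored well above the rest). Values scatter widely below zero; nearly all retest evidence comes from the higher of the two concentrations used. Size under these conditions: about 64,000 compounds, about 940 of them at 50% or above in at least one test.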
B: 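Cell assay of Leishmania donovani living inside macrophages; the read-out is not stated. Compounds at 30 µM. Direction is inferred from retests: higher values go with stronger inhibition. About 69,000 compounds were tested under these conditions; 1.5% (about 1,000) showed 50% or more at least once.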
C: 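Assay of Toxoplasma gondii numbers, read through their beta-galactosidase reporter with a colour substrate. Compounds at 10 µM. The record gives no direction; the compounds picked for IC50 retests had high values, so higher reads as fewer parasites. About 67,000 compounds were tested under these conditions; 0.38% (about 260) showed 50% or more at least once.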

CN(c1ncc(S(N)(=O)=O)s1)C1CCc2ccccc21 (stereo not shown) gave A: 3.372%; B: 21.68%; C: -1.614%. O=C1CCN(C(=O)C2(c3ccc(Br)cc3)CC2)CCN1 gave A: 12.25%; B: 27.16%; C: 31.67%. Result for Cn1cc(NC(=O)N2CCCC2c2ccccn2)ccc1=O (stereo not shown) was A: -1.915%; B: 29.82%; C: -9.304%. Result for O=C(NCCC1=CCCCC1)c1n[nH]c2c1CCCC2 was A: 9.564%; B: 24.1%; C: 48.87%. CCCNC(=O)CNC(=O)c1scnc1C gave A: -4.196%; B: -2.588%; C: 8.938%. With CC(=O)N1CCCC(c2ccnc(N(C)C)n2)C1 (stereo not shown) the screen gave A: 8.003%; B: -2.613%; C: 12.96%. Result for [H][C@@]12CN(S(C)(=O)=O)C[C@]1(C(=O)N(C)C)CCC21CCN(C(C)=O)CC1 was A: -30.26%; B: 1.542%; C: 3.987%. CCc1cc(C(=O)N2CCCC(Cc3ccc(NC)nn3)C2)on1 (stereo not shown) gave A: -8.335%; B: -13.99% & -7.741%; C: -2.729%.

With Cc1nn(C)c(C)c1CN1CCNCC1 the screen gave A: -3.853%; B: 36.42%; C: 11.78%. For O=C(Nc1ccc(F)cc1-c1nc(C2CC2)no1)N1CC[C@@H](O)C1 the result was A: -25.74%; B: 36.38%. For Cc1nc(O)cc(C2CCCN(C(=O)CN(C)c3ccccc3)C2)n1 (stereo not shown) the result was A: -30.46%; B: 1.622%; C: 4.32%. CCCC(C(=O)NC1CCN(S(C)(=O)=O)CC1)c1ccccc1 (stereo not shown) read A: -32.88%; B: 4.435%; C: -1.598%. Result for COC(=O)c1sccc1NC(=O)C1CCCN1C(=O)c1ccco1 (stereo not shown) was A: -60.61%; B: -31.66%; C: 10.12%. Result for CCc1cc(N2CCC(NCCc3ccccc3F)CC2)nc(C)n1 was A: 27.23%; B: 63.92%; C: 40.93%. For N#Cc1cccc(CN2Cc3nccn3CC(COCC3CC3)C2)c1.O=C(O)C(F)(F)F (stereo not shown) the result was A: -32.45%; B: 8.128%; C: -6.364%. CCC[C@H]1CN(S(=O)(=O)c2ccc(-c3c(C)noc3C)s2)C[C@@H]1N gave A: -28.68%; B: 47.89%; C: 4.207%.

For Cc1csc(Nc2cc(C3CN(c4ccncn4)C3)nc(C)n2)n1 the result was A: 18.51%; B: 17.37%; C: -15.9%. CC[C@@]1(O)CCN(C(=O)CCc2cnn(C)c2)C[C@H]1O gave A: -20.03%; B: 28.56%; C: 7.737%. CSCc1noc(CNC(=O)C2CCN(C(=O)C3CCC3)CC2)n1 gave A: -8.221%; B: 18.58%; C: 3.688%. Fc1ccc(CNCCn2cccn2)c(Cl)c1 read B: 37.69%; C: 9.228%. For Cc1n[nH]c(C)c1-c1cc(-c2ccc[nH]2)nc(N)c1C#N the result was A: 1.214%; B: -15.39%; C: -19.3%. Result for O=C(O)C(F)(F)F.c1cc(CN2CCc3c(nnn3CC3CC3)C2COCC2CC2)co1 (stereo not shown) was A: 36.83%; B: 3.006%; C: 3.151%. For Cc1ccc2[nH]c(CO[C@H]3CN(c4ccc(C#N)cn4)C[C@H]3F)nc2c1 the result was A: -28.74%; B: 10.42%; C: 7.799%. With CC(OCC1CC1)C(=O)Nc1cccc(C(=O)Nc2ccccn2)c1 (stereo not shown) the screen gave A: 21.05%; B: 21.36%; C: 11.5%.

For Cc1nc(C)n(CC2CCCN2Cc2nc3ccccc3s2)n1 (stereo not shown) the result was A: 2.264%; B: 22.62%; C: -18.98%. Result for CC(=O)Nc1ccc(C(=O)Nc2cnc3n2CCCC3)c(C)c1 was A: -21.67%; B: -8.573%; C: 8.379%. Result for COc1ccc(C(CC(=O)O)NC(=O)CCc2cccs2)cc1OC (stereo not shown) was B: 35.53%; C: 8.977%. Result for [H][C@@]12CCCC[C@]1([H])C(=O)N(c1cnn(Cc3cccc(OC)c3)c1)C2=O was B: -98.34%; C: 17.51%. For Cc1n[nH]c(C)c1Sc1ccccc1NC(=O)N1CCCC(C(N)=O)C1 (stereo not shown) the result was A: 17.02%; B: 20.63%; C: -10.39%. O=C(c1ccccn1)N1CCc2ncnc(-c3ccncc3)c2CC1 read A: -59.34%; B: 9.238%; C: -0.3011%. Result for Cc1cnn(CC2CCCCN2CCS(C)(=O)=O)c1 (stereo not shown) was A: 8.755%; B: 26.51%; C: -2.48%. With CN(C(=O)c1ccn(C)n1)[C@@H]1CCC[C@@H](Oc2ccccc2)[C@@H]1O the screen gave A: -21.15%; B: 15.76% & 1.721%; C: -7.485%.

CS(=O)(=O)CCC(=O)Nc1ccsc1 gave A: -42.43%; B: -7.644%; C: 13.62%. Cc1ccccc1OC1CCN(CC(=O)Nc2cn(C)nc2C)CC1 read A: -7.231%; B: -57.12%; C: 9.268%. For O=C1CN(c2ccc(CNC(=O)c3ccc[nH]3)cc2F)CCN1 the result was A: -27.12%; B: 13.79%; C: -37.08%.

Once more, the final 4:

{"compound": "CN(C(=O)c1ccn(C)n1)[C@@H]1CCC[C@@H](Oc2ccccc2)[C@@H]1O", "A": -21.15, "B": "15.76 & 1.721", "C": -7.485}
{"compound": "CS(=O)(=O)CCC(=O)Nc1ccsc1", "A": -42.43, "B": -7.644, "C": 13.62}
{"compound": "Cc1ccccc1OC1CCN(CC(=O)Nc2cn(C)nc2C)CC1", "A": -7.231, "B": -57.12, "C": 9.268}
{"compound": "O=C1CN(c2ccc(CNC(=O)c3ccc[nH]3)cc2F)CCN1", "A": -27.12, "B": 13.79, "C": -37.08}

Measurements from “University of Dundee, Small-Polar-MMV Screening Library” (2021), ChEMBL document CHEMBL3988442.